Source: PubChem BioAssay AID1259254 (NCATS, 2017)
This is a random part of about 59,000 reagents. In the full data, about 1,550 (2.6%) got an active call. 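G2 share is only a proxy for re-replication; each gene was hit by three separate siRNAs, and active genes were retested.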 Entries without a mark were called inactive. The numbers tell different reagents against one gene apart. Further read-outs or replicates are left out here. The record does not give: the amount of reagent.

Screen: 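Genome-wide screen for genes that prevent DNA re-replication in cancer cells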 (primary screen)
Cell system: human HCT116 colorectal cancer cells
Reagents: single siRNA against human genes
Duration: 3 days
Detection: 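Imaged Hoechst DNA stain sorts each cell into a cycle phase by DNA amount; per plate, G2 fraction set to 0% for non-targeting and 100% for GMNN siRNA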
Scale: G2 robust z-score: higher = more G2 cells, more excess DNA replication
Rule for the call: 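An siRNA counts as active if its G2 robust z-score lies at least 5 MADs above the screen median; here such calls match roughly 38% of GMNN control or more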

The opening 3 entries as a preview:
gene symbol | reagent no. | G2 robust z-score
EPHA4 | 1 | -0.513
EPHA4 | 2 | 4.87
EPHA4 | 3 | -0.301

The list itself, from the start:
gene symbol | reagent no. | G2 robust z-score
EPHA4 | 1 | -0.513
EPHA4 | 2 | 4.87
EPHA4 | 3 | -0.301
EPS8L3 | 1 | -0.814
EPS8L3 | 2 | -0.607
EPS8L3 | 3 | 0.556
WWC2-AS2 | 1 | -0.447
WWC2-AS2 | 2 | 0.684
WWC2-AS2 | 3 | 0.0635
LEUTX | 1 | 2.75
LEUTX | 2 | -0.055
LEUTX | 3 | 0.0693
PLA2G4A | 1 | 0.722
PLA2G4A | 2 | -0.944
PLA2G4A | 3 | 0.706
SHPK | 1 | 7.44 (active)
SHPK | 2 | -0.928
SHPK | 3 | -0.972
KCNK5 | 1 | -0.678
KCNK5 | 2 | -0.109
KCNK5 | 3 | 0.393
MILR1 | 1 | 0.365
MILR1 | 2 | 0.173
MILR1 | 3 | 1.75
DYNLL2 | 1 | 6.4 (active)
DYNLL2 | 2 | 1.47
DYNLL2 | 3 | -0.134
MT2A | 1 | -0.637
MT2A | 2 | 0.693
MT2A | 3 | -0.0842
